Laboratory results: publication PMC10356786
These are yes or no findings as the source states them, for the method shown. Binding seen in cells or lysates may run through a third protein. Some entries that bind do so weakly or less than the wild type. Tags and fused reporters may be left off the sequences shown. Blank lines part the entries; values can stand above or below the binder they belong to.

Amino acid sequences for entries named in this document (tags omitted). Residues count along the entry.
UniProt O75581, residues 20-1613: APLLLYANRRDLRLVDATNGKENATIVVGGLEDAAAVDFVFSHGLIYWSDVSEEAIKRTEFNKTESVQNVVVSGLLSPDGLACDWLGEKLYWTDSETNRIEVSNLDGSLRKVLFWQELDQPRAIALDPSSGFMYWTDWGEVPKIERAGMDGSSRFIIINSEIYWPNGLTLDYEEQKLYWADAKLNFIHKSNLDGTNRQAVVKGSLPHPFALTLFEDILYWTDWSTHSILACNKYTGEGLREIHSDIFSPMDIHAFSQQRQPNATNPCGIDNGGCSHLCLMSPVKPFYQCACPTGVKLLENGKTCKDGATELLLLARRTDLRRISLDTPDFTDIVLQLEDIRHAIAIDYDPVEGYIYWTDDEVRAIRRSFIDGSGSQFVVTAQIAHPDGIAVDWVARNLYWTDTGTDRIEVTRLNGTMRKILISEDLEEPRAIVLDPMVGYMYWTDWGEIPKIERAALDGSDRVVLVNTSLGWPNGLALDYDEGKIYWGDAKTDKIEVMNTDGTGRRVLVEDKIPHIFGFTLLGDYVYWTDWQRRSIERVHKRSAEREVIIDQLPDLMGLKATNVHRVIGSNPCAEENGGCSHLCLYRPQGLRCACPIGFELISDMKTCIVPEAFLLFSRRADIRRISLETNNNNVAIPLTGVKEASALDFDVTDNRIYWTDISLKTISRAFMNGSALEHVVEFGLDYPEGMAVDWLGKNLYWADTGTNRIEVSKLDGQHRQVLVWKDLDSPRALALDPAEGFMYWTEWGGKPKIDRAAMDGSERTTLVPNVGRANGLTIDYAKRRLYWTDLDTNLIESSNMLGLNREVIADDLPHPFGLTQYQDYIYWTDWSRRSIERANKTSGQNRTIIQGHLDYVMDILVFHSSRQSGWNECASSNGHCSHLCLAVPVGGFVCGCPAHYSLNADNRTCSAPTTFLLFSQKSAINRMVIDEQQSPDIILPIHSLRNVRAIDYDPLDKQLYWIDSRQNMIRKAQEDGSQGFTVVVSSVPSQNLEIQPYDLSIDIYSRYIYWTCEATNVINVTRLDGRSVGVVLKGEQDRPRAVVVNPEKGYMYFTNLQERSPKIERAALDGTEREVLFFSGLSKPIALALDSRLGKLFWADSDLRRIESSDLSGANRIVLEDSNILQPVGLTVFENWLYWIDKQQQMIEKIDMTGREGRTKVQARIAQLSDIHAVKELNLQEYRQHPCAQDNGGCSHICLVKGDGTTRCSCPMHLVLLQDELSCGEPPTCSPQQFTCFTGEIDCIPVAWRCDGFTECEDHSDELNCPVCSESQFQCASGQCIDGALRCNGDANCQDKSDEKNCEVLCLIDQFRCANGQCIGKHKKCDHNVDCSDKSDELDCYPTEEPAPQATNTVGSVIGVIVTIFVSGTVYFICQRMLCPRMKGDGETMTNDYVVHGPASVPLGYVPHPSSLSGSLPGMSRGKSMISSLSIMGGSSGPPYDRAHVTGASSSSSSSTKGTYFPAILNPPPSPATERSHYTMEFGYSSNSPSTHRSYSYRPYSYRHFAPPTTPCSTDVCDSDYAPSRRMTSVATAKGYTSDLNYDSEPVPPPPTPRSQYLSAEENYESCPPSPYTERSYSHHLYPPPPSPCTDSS

Tests used:
[1] = molecular target: EGFP-tagged Lypd6 (Ly6 family protein LY6/PLAUR domain-containing 6) (UniProt Q86Y78); assay: FRET or BRET; FLIM-FRET (EGFP donor lifetime, mCherry acceptor; apparent FRET efficiency) in transfected YAMC, IMCE and IMCE βcat colonocytes fixed in 4% PFA and 0.2% glutaraldehyde; Wnt3a-conditioned media or control media for 30 min; pre-treatment with MβCD (10 mM, 30 min), mevastatin (5 µM, 24 h) or PAO (20 µM, 30 min) lowered the FRET efficiency
[2] = molecular target: EGFP-tagged LRP6 (low-density lipoprotein receptor-related protein 6) (UniProt O75581); assay: FRET or BRET; FLIM-FRET as a1, but cells incubated with control media without Wnt3a (unstimulated)
[3] = molecular target: EGFP-tagged LRP6 (low-density lipoprotein receptor-related protein 6) (UniProt O75581); assay: FRET or BRET; FLIM-FRET (EGFP donor lifetime, mCherry acceptor; apparent FRET efficiency) in transfected YAMC, IMCE and IMCE βcat colonocytes fixed in 4% PFA and 0.2% glutaraldehyde; Wnt3a-conditioned media or control media for 30 min; pre-treatment with MβCD (10 mM, 30 min), mevastatin (5 µM, 24 h) or PAO (20 µM, 30 min) lowered the FRET efficiency

- binding [1]: binds
B1: EGFP-tagged Lypd6 (Ly6 family protein LY6/PLAUR domain-containing 6) (protein, UniProt Q86Y78 23-147)
chain: AQSRDFTVKDIIYLHPSTTPYPGGFKCFTCEKAADNYECNRWAPDIYCPRETRYCYTQHTMEVTGNSISVTKRCVPLEECLSTGCRDSEHEGHKVCTSCCEGNICNLPLPRNETDATFATTSPIN

- binding [2]: binds weakly
- binding [3]: binds
B2: mCherry-tagged Dvl1 (Dishevelled 1) (protein, UniProt O14640 1-695)
chain: MAETKIIYHMDEEETPYLVKLPVAPERVTLADFKNVLSNRPVHAYKFFFKSMDQDFGVVKEEIFDDNAKLPCFNGRVVSWLVLAEGAHSDAGSQGTDSHTDLPPPLERTGGIGDSRPPSFHPNVASSRDGMDNETGTESMVSHRRERARRRNREEAARTNGHPRGDRRRDVGLPPDSASTALSSELESSSFVDSDEDGSTSRLSSSTEQSTSSRLIRKHKRRRRKQRLRQADRASSFSSITDSTMSLNIVTVTLNMERHHFLGISIVGQSNDRGDGGIYIGSIMKGGAVAADGRIEPGDMLLQVNDVNFENMSNDDAVRVLREIVSQTGPISLTVAKCWDPTPRSYFTVPRADPVRPIDPAAWLSHTAALTGALPRYGTSPCSSAVTRTSSSSLTSSVPGAPQLEEAPLTVKSDMSAVVRVMQLPDSGLEIRDRMWLKITIANAVIGADVVDWLYTHVEGFKERREARKYASSLLKHGFLRHTVNKITFSEQCYYVFGDLCSNLATLNLNSGSSGTSDQDTLAPLPHPAAPWPLGQGYPYQYPGPPPCFPPAYQDPGFSYGSGSTGSQQSEGSKSSGSTRSSRRAPGREKERRAAGAGGSGSESDHTAPSGVGSSWRERPAGQLSRGSSPRSQASATAPGLPPPHPTTKAYTVVGGPPGGPPVRELAAVPPELTGSRQSFQKAMGNPCEFFVDIM
